Values from PubChem BioAssay AID504744 (Drosophila RNAi Screening Center, 2011)

Screen: 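Uncover factors, including feedback loops, that control dAkt activation in fly cells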 (primary screen)
Cell system: Drosophila Kc167 cells
Reagents: long dsRNA against Drosophila genes, 250 ng dsRNA per well of a 384-well plate
Timing: 3 days of knock-down, then overnight serum-free starvation before stimulation
Treatment: bovine insulin at 387 nM for 10 minutes after 12 h without serum
Detection: 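In-cell antibody fluorescence for phospho-dAkt in each well over DNA-dye signal, with log2 residuals expressed as z-scores adjusted for cell count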
Hit rule: 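Under insulin, a gene counts as a hit if the average z-score of two replicates lies above 2.5 or below -2.5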
The screen tested about 23,000 reagents; shown is an unselected part of those with a known target gene and a result. Over the whole deposit, 98 (0.43%) got an active call. 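Only hit calls are given; the phospho-dAkt signals, z-scores and hit direction were not deposited.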 Names joined by + are all predicted targets of the reagent.

| target gene | DRSC id | activity call |
| --- | --- | --- |
| Yod1 (Yod1 deubiquitinase) | DRSC10433 | inactive |
| spz4 (spatzle 4) | DRSC02410 | inactive |
| mRpL13 (mitochondrial ribosomal protein L13) | DRSC02076 | inactive |
| SK (small conductance calcium-activated potassium channel) | DRSC17387 | inactive |
| SK (small conductance calcium-activated potassium channel) | DRSC17751 | inactive |
| SK (small conductance calcium-activated potassium channel) | DRSC17887 | inactive |
| SK (small conductance calcium-activated potassium channel) | DRSC17888 | inactive |
| SK (small conductance calcium-activated potassium channel) | DRSC18353 | inactive |
| SK (small conductance calcium-activated potassium channel) | DRSC21840 | inactive |
| CG9570 | DRSC20687 | inactive |
| vig (vasa intronic gene) | DRSC03630 | inactive |
| vig (vasa intronic gene) | DRSC03631 | inactive |
| vig (vasa intronic gene) | DRSC21672 | inactive |
| Pih1D1 (PIH1 domain containing 1) | DRSC02897 | inactive |
| CG7378 | DRSC20041 | inactive |
| Cap-D3 + tomb | DRSC02347 | inactive |
| Kul (Kuzbanian-like) | DRSC15404 | inactive |
| CG13711 | DRSC08320 | inactive |
| Nmt (N-myristoyl transferase) | DRSC11236 | inactive |
| CG4558 | DRSC18369 | inactive |
| NP15.6 | DRSC16756 | inactive |
| rb (ruby) | DRSC18826 | inactive |
| Ir75b (Ionotropic receptor 75b) | DRSC10189 | inactive |
| CG11417 | DRSC18581 | inactive |
| CG34277 + CG31542 | DRSC21544 | inactive |
| CG10877 | DRSC14274 | inactive |
| Peritrophin-A (Peritrophin A) | DRSC20570 | inactive |
| CG14671 | DRSC12257 | inactive |
| CG30491 | DRSC21472 | inactive |
| cbc (crowded by cid) | DRSC06957 | inactive |
| TM9SF3 (Transmembrane 9 superfamily protein member 3) | DRSC09747 | inactive |
| RpL19 (Ribosomal protein L19) | DRSC04649 | inactive |
| CG30105 | DRSC05668 | inactive |
| Gr28b (Gustatory receptor 28b) | DRSC02291 | inactive |
| Gr28b (Gustatory receptor 28b) | DRSC02292 | inactive |
| da | DRSC03517 | inactive |
| TM9SF4 (Transmembrane 9 superfamily protein member 4) | DRSC01888 | inactive |
| TM9SF4 (Transmembrane 9 superfamily protein member 4) | DRSC02537 | inactive |
| Stip1 (Stress induced phosphoprotein 1) | DRSC00756 | inactive |
| qtc (quick-to-court) | DRSC02364 | inactive |
| qtc (quick-to-court) | DRSC02365 | inactive |
| CtsL3 (Cathepsin L3) | DRSC12171 | inactive |
| Spf30 (Splicing factor 30) | DRSC11976 | inactive |
| CG10927 | DRSC06014 | inactive |
| CG32081 | DRSC09861 | inactive |
| CG16762 | DRSC08493 | inactive |
| S-Lap7 (Sperm-Leucylaminopeptidase 7) | DRSC06374 | inactive |
| repo (reversed polarity) | DRSC16369 | inactive |
| fd3F (retired record) + Crg-1 | DRSC17283 | inactive |
| Kdm4B (Lysine demethylase 4B) | DRSC06862 | inactive |
| CG31342 | DRSC15349 | inactive |
| CG31342 | DRSC16246 | inactive |
| CG10958 | DRSC17768 | inactive |
| smash (smallish) | DRSC12139 | inactive |
| smash (smallish) | DRSC12239 | inactive |
| CG34376 | DRSC14695 | inactive |
| CG34376 | DRSC14696 | inactive |
| CG34376 | DRSC14701 | inactive |
| CG14180 (retired record) | DRSC10179 | inactive |
| CG3961 | DRSC10390 | inactive |
| CG3961 | DRSC10391 | inactive |
| CG13250 | DRSC11698 | inactive |
| wls (wntless) | DRSC10605 | inactive |
| CG10184 | DRSC14204 | inactive |
| Ir51b (Ionotropic receptor 51b) | DRSC05540 | inactive |
| CG10089 | DRSC09694 | inactive |
| CG10089 | DRSC09695 | inactive |
| CG17068 | DRSC20545 | inactive |
| Tom70 (Translocase of outer membrane 70) | DRSC02990 | inactive |
| Prp5 (pre-mRNA processing factor 5) | DRSC19975 | inactive |
| Regnase-1 (Regnase 1) | DRSC14278 | inactive |
| Sfp93F (Seminal fluid protein 93F) | DRSC13505 | inactive |
| lncRNA:iab4 (long non-coding RNA:iab4) | DRSC22331 | inactive |
| Sxl + CG14425 (retired record) | DRSC18721 | inactive |
| Sxl + CG14425 (retired record) | DRSC18722 | inactive |
| Sxl + CG14425 (retired record) | DRSC21490 | inactive |
| Or49b (Odorant receptor 49b) | DRSC07494 | inactive |
| dock (dreadlocks) | DRSC00812 | inactive |
| Cpr65Eb (Cuticular protein 65Eb) | DRSC11026 | inactive |
| CG7560 | DRSC10879 | inactive |
| CG15923 | DRSC15129 | inactive |
| CG13144 | DRSC02241 | inactive |
| Mal-A4 (Maltase A4) | DRSC07236 | inactive |
| CG6230 | DRSC01989 | inactive |
| CG5326 | DRSC13568 | inactive |
| CG5326 | DRSC15770 | inactive |
| Jheh1 (Juvenile hormone epoxide hydrolase 1) | DRSC06529 | inactive |

The list goes on; the last 7 above are carried over.
| target gene | DRSC id | activity call |
| --- | --- | --- |
| CG15923 | DRSC15129 | inactive |
| CG13144 | DRSC02241 | inactive |
| Mal-A4 (Maltase A4) | DRSC07236 | inactive |
| CG6230 | DRSC01989 | inactive |
| CG5326 | DRSC13568 | inactive |
| CG5326 | DRSC15770 | inactive |
| Jheh1 (Juvenile hormone epoxide hydrolase 1) | DRSC06529 | inactive |
| CG7800 | DRSC16315 | inactive |
| CG31751 | DRSC02464 | inactive |
| CG31751 | DRSC02465 | inactive |
| CG9281 | DRSC20179 | inactive |
| CG32945 | DRSC12014 | inactive |
| Snx3 (Sorting nexin 3) | DRSC16027 | inactive |
| Nep3 (Neprilysin 3) | DRSC20685 | inactive |
| EMC5 (ER membrane protein complex subunit 5) | DRSC02469 | inactive |
| Dbx | DRSC08270 | inactive |
| Dbx | DRSC08271 | inactive |
| Dbx | DRSC08394 | inactive |
| spen (split ends) | DRSC00839 | inactive |
| CG10435 | DRSC14246 | inactive |
| Rap1 (Rap1 GTPase) | DRSC08686 | inactive |
| VhaM9.7-a (Vacuolar H[+] ATPase M9.7 subunit a) | DRSC08289 | inactive |
| CG6138 | DRSC02933 | inactive |
| Cln7 | DRSC11005 | inactive |
| RhoGEF3 (retired record) | DRSC08266 | inactive |
| RhoGEF3 (retired record) | DRSC08353 | inactive |
| csul (capsuleen) | DRSC07599 | inactive |
| CG4281 | DRSC18521 | inactive |
| PNKP (Polynucleotide kinase 3'-phosphatase) | DRSC16512 | inactive |
| LysX (Lysozyme X) | DRSC08678 | inactive |
| Lsp1beta (Larval serum protein 1 beta) | DRSC00757 | inactive |
| nub (nubbin) | DRSC01260 | inactive |
| nub (nubbin) | DRSC02498 | inactive |
| nub (nubbin) | DRSC02499 | inactive |
| nub (nubbin) | DRSC03583 | inactive |
| zen (zerknullt) | DRSC12632 | inactive |
| CG9192 | DRSC08639 | inactive |
| H2.0 (Homeodomain protein 2.0) | DRSC03340 | inactive |
| H2.0 (Homeodomain protein 2.0) | DRSC22555 | inactive |
| CG15172 | DRSC02473 | inactive |
| chas (chascon) | DRSC19508 | inactive |
| chas (chascon) | DRSC19509 | inactive |
| mir-210 (retired record) | DRSC19230 | inactive |
| PIG-Wa (Phosphatidylinositol glycan anchor biosynthesis class W a) | DRSC00728 | inactive |
| CG30486 | DRSC06680 | inactive |
| Ote (Otefin) | DRSC07498 | inactive |
| LSm1 (Like Sm 1) | DRSC04458 | inactive |
| GEFmeso (Guanine nucleotide exchange factor in mesoderm) | DRSC06748 | inactive |
| GEFmeso (Guanine nucleotide exchange factor in mesoderm) | DRSC06940 | inactive |
| GEFmeso (Guanine nucleotide exchange factor in mesoderm) | DRSC21475 | inactive |
| CRMP (Collapsin Response Mediator Protein) | DRSC12073 | inactive |
| CRMP (Collapsin Response Mediator Protein) | DRSC12345 | inactive |
| CG12237 | DRSC19449 | inactive |
| CG12237 | DRSC22256 | inactive |
| Taf3 (TBP-associated factor 3) | DRSC17170 | inactive |
| Alg14 (ALG14, UDP-N-acetylglucosaminyltransferase subunit) | DRSC19983 | inactive |
| Rab14 | DRSC03403 | inactive |
| Cpr92F (Cuticular protein 92F) | DRSC15819 | inactive |
| CG5639 | DRSC15851 | inactive |
| CG31538 | DRSC12059 | inactive |
| CG4830 | DRSC15657 | inactive |
| CG13708 | DRSC08317 | inactive |
| pgc (polar granule component) | DRSC04099 | inactive |
| Indy (I'm not dead yet) | DRSC10393 | inactive |
| CG14223 | DRSC19580 | inactive |
| CG11409 | DRSC18579 | inactive |
| CG13693 | DRSC00362 | inactive |
| Tektin-A (Tektin A) | DRSC01921 | inactive |
| CG8243 | DRSC07122 | inactive |
| CG8243 | DRSC22608 | inactive |
| CG15221 | DRSC19659 | inactive |
| Cep135 (Centrosomal protein 135kDa) | DRSC09345 | inactive |
| Cep135 (Centrosomal protein 135kDa) | DRSC10244 | inactive |
| PolH (DNA polymerase eta) | DRSC11800 | inactive |
| CG16753 | DRSC08489 | inactive |
| CG13229 | DRSC06349 | inactive |
| CG31473 | DRSC15443 | inactive |
